Laboratory results reported in patent US20110085970A1.
No constants are given. Whether binding was seen depends on the method and setting. Some results given as binding are weak or reduced against the parent protein; the word gives no strength.

Molecular target: T1, O8E (B7-H4) in normal mouse tissue (mouse) (UniProt Q7TSP5)
T1 sequence (looked up): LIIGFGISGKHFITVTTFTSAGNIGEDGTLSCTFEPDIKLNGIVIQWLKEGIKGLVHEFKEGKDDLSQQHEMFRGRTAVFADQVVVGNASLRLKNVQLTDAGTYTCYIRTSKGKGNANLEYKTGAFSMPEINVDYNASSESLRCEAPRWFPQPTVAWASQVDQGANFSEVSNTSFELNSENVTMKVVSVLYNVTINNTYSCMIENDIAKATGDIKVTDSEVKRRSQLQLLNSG
Assay: immunohistochemistry on a normal mouse tissue array

binding: binds
B1: 1G11 human monoclonal antibody (anti-O8E / anti-B7-H4) (antibody, V domains shown)
VH: QVQLQQWGAGLLKPSETLSLTCAVYGGSFSDYFWTWIRQPPGKGLEWIGEINHSGTTNYNPSLKSRVTISADTSKNQFSLRLSSVTAADTAVYYCARLSSWSNWAFEYWGQGTLVTVSS
VL: EIVLTQFPGTLSLSPGERATLSCRASQSVSSTYLAWYQQKPGQAPRVLIYGASRRATGIPDRFSGSGSGTDFTLTISRLEPEDFAVYYCQQYGSSPLTFGGGTKVEIK
